Measured values published in the supplement of paper PMC10849652.
The other results are listed elsewhere or left out.

The chains behind the UniProt entries cited, without tags or fusion partners. Where a name states a change or a piece, a line headed by the entry shows the natural chain unless it says otherwise.
UniProt O00625: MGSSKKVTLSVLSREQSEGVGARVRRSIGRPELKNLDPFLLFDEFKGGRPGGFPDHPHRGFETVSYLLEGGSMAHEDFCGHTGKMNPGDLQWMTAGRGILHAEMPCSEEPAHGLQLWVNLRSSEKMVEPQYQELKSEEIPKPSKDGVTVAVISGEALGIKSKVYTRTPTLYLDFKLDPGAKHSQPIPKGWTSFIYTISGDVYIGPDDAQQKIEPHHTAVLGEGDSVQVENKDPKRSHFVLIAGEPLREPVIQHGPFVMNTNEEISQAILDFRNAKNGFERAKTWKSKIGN
UniProt P53609, whole entry, looked up: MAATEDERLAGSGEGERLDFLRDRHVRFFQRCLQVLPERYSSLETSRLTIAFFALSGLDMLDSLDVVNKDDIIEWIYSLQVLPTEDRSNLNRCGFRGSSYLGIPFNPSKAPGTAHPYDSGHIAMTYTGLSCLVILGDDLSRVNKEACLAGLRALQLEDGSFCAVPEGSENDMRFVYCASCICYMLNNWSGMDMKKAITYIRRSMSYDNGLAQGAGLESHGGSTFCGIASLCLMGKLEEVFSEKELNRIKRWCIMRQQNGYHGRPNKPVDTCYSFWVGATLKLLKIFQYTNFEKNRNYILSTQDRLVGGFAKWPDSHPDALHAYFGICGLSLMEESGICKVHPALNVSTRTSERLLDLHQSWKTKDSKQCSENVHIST
UniProt Q96S99: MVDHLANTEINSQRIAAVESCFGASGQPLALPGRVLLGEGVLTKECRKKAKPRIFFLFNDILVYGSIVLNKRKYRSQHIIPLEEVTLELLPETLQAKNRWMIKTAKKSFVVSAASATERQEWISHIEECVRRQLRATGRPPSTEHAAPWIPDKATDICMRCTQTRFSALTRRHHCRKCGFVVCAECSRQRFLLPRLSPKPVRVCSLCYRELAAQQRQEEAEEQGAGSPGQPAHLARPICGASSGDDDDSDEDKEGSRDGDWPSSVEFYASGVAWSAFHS
UniProt Q9UBF8: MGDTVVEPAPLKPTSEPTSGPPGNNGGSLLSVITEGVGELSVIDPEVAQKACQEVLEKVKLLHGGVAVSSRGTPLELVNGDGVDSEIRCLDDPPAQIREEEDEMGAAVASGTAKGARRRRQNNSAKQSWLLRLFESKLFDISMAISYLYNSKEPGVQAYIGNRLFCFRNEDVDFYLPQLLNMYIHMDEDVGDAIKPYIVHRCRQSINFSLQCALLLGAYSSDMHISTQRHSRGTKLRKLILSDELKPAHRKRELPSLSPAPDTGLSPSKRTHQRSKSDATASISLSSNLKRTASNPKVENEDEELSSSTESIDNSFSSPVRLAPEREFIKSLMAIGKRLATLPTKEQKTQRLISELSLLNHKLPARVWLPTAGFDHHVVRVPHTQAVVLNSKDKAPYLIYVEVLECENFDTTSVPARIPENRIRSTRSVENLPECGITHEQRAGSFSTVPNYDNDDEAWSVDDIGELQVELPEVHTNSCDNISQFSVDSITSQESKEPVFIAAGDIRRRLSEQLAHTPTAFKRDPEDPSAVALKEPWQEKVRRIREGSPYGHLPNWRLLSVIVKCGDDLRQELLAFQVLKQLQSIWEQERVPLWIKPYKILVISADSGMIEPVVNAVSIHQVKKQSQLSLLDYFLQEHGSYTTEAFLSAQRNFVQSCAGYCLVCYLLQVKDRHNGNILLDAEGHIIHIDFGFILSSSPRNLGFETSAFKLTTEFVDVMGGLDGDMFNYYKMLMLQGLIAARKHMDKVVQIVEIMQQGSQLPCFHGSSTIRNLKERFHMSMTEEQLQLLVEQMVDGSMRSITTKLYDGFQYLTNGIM
UniProt P55347: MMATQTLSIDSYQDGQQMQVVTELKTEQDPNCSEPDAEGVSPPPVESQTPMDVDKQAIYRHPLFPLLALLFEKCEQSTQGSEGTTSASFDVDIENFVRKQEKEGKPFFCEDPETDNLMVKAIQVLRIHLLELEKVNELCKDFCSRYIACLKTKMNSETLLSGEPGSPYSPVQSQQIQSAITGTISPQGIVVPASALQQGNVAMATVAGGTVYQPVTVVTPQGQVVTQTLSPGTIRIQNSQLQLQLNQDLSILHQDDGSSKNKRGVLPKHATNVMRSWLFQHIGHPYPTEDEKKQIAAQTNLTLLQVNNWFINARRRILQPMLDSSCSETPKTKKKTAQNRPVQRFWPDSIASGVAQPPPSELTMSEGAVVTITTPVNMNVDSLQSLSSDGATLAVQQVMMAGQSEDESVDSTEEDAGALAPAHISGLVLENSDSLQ
UniProt Q9H8W4: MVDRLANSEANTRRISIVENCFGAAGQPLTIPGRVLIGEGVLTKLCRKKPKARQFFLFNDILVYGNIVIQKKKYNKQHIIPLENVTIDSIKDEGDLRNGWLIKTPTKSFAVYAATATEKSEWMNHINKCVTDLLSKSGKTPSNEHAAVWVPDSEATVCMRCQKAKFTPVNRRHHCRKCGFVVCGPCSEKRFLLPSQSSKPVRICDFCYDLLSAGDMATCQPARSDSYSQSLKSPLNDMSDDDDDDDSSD
UniProt Q99570, whole entry, looked up: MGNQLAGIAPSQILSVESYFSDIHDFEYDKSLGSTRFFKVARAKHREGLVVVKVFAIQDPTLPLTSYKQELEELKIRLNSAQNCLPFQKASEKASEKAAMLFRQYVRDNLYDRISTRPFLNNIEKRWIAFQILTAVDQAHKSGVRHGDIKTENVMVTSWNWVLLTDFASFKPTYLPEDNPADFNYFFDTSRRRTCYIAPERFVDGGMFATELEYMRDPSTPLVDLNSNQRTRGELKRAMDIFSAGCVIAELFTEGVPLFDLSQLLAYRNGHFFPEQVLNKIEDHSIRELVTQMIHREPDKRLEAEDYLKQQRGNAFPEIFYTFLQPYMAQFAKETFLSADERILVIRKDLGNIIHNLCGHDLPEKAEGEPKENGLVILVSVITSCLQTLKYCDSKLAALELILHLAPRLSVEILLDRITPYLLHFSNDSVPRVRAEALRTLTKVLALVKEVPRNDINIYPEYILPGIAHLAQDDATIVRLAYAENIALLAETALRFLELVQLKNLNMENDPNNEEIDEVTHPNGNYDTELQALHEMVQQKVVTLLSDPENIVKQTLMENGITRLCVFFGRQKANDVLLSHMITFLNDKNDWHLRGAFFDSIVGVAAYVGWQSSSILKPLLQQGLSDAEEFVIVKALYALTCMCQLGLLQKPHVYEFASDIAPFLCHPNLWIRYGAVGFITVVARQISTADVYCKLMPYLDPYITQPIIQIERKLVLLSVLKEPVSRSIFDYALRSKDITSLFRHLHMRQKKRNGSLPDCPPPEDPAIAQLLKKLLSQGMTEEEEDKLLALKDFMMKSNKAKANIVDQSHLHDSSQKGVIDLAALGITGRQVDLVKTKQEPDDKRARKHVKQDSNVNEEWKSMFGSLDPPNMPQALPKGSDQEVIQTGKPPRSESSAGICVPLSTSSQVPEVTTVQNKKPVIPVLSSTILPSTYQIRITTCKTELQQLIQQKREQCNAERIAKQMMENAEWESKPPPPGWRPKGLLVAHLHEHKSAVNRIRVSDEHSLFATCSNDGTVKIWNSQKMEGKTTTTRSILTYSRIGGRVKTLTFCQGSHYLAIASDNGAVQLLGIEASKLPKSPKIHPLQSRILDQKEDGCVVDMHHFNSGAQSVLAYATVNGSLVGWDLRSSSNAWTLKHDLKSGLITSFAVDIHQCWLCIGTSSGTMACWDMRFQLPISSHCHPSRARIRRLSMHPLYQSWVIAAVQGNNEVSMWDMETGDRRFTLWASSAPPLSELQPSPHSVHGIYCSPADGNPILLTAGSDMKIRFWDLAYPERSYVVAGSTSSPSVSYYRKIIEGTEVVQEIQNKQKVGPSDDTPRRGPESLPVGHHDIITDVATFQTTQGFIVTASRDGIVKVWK
UniProt Q8TCD6: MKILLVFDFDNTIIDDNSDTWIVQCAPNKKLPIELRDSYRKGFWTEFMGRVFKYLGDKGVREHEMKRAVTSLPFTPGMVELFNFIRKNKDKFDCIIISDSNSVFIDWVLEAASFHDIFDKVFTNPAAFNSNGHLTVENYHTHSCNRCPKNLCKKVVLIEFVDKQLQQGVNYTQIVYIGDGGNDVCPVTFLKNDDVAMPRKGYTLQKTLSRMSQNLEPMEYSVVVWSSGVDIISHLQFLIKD
UniProt Q92508: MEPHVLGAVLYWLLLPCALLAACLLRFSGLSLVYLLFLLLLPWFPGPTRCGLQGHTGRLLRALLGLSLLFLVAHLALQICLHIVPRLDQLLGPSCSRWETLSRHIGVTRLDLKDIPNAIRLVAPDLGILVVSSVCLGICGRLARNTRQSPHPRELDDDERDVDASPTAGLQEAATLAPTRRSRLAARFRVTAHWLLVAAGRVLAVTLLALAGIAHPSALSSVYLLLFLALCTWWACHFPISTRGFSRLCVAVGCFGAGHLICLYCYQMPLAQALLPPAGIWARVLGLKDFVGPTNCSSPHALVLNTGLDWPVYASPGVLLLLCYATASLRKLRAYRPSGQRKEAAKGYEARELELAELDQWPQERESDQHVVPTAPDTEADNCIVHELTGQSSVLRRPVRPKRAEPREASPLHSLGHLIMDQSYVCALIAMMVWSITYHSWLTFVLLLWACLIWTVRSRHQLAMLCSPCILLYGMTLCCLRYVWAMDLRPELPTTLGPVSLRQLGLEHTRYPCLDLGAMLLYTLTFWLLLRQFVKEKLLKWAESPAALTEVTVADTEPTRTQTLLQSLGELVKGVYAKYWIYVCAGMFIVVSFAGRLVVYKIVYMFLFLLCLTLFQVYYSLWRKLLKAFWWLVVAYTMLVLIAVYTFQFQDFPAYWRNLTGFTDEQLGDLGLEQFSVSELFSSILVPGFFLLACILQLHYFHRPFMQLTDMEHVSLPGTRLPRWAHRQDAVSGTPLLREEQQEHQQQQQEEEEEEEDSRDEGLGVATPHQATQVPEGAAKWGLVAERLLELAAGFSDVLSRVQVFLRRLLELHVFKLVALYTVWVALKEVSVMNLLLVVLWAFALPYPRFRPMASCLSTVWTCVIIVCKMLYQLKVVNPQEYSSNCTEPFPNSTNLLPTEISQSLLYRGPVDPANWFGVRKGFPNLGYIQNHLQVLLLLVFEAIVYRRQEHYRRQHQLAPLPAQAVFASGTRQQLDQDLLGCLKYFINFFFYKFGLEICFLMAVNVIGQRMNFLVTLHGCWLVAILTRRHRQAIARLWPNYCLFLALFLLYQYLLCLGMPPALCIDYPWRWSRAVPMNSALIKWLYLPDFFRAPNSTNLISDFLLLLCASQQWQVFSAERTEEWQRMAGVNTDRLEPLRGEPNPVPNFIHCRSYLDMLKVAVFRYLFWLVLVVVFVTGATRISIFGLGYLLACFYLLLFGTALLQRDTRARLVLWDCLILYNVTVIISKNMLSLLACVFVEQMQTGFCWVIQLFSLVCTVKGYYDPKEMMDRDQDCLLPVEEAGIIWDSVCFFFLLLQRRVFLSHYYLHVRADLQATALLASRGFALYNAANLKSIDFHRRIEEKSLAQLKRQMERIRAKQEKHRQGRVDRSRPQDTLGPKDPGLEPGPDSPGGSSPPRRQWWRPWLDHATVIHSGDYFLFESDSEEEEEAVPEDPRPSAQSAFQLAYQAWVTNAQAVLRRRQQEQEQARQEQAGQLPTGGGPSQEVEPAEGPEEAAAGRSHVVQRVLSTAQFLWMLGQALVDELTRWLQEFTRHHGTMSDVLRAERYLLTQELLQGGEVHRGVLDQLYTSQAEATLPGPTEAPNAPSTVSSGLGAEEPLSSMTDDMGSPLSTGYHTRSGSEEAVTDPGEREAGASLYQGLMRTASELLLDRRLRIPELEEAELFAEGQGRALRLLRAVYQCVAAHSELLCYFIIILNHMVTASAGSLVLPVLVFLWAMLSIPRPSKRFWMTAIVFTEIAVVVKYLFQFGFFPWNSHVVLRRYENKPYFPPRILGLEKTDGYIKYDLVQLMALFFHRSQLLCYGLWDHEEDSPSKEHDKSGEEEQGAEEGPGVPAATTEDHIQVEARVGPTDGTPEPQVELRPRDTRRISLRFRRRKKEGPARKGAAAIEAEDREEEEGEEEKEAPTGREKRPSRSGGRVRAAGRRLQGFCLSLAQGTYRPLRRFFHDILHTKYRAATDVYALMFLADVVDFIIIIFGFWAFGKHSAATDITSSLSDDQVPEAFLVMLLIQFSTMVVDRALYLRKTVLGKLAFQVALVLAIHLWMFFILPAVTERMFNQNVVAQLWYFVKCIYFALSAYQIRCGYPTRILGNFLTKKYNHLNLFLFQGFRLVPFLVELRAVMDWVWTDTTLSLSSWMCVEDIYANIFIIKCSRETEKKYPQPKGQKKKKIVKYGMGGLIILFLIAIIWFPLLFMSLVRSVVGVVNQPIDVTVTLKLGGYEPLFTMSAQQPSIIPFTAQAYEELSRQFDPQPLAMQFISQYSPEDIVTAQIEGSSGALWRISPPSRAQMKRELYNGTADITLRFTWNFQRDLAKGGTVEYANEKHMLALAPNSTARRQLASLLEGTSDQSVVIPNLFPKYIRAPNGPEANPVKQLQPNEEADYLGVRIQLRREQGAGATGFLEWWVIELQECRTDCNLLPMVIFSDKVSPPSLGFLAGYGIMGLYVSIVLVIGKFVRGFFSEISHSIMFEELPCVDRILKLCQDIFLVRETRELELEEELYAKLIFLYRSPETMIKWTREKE

What was measured:
Experiment in all cases: log2 fold change, soluble protein after heating vs DMSO (PISA); higher = thermal stabilisation; K562 lysate, 10 uM; active = over 0.2 and 3.5 SD of the protein, either way, in both replicates (recomputed)
[1] = compound: CN1CC[C@H](c2c(O)cc(O)c3c(=O)cc(-c4ccccc4Cl)oc23)[C@H](O)C1 [alvocidib]
How it was run: (§1)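 Dounce homogenisation of K562 pellets in PBS pH 7.4 with 1 mM MgCl2 produced a crude extract, used at 1 mg/mL protein. Exposure to 10 μM compound lasted 30 min, and aliquots were then heated for 3 min across 48°C-58°C, pooled and brought to 0.5% NP-40 at 4°C. The supernatant after 21,000xg for 90 min was quantified by TMTpro 16plex LC-MS/MS with channel sums equalised. Duplicate values are given as log-two fold change in thermal stability relative to solvent controls.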

[2] = compound: CN1CCc2c(c3ccccc3n2Cc2ccc(C(=O)NO)cc2)C1 [Tubastatin A]
How it was run: as §1

[3] = compound: CNC(=O)C1=CC=CC=C1NC2=NC(=NC=C2Cl)NC3=C(C=C(C=C3)N4CCOCC4)OC
How it was run: as §1

[4] = compound: CNC(=O)c1ccc(Nc2ncc(C(F)(F)F)c(NCc3nccnc3N(C)S(C)(=O)=O)n2)cc1 [defactinib]
How it was run: as §1

[5] = compound: CNc1nc(-c2ccc3c(N)n[nH]c3c2)cc(N2C[C@@H](C(=O)NC3CCCCC3)CC[C@H]2C)n1
How it was run: as §1

[6] = compound: COC(=O)N[C@@H](C)CNc1nccc(-c2cn(C(C)C)nc2-c2cc(Cl)cc(NS(C)(=O)=O)c2F)n1 [encorafenib]
How it was run: as §1

[7] = compound: COC(=O)[C@H](CCSC)NC(=O)C1=C(C=C(C=C1)NC[C@H](CS)N)C2=CC=CC=C2
How it was run: as §1

[8] = compound: COc1cc(Nc2ncc3c(n2)-c2ccc(Cl)cc2C(c2c(F)cccc2OC)=NC3)ccc1C(=O)O [alisertib]
How it was run: as §1

[9] = compound: COc1cc2nc(-c3cc(F)ccc3O)nc(N[C@@H]3CNC[C@H]3C(C)(C)O)c2cc1OC
How it was run: as §1

[10] = compound: COc1cc2ncnc(Nc3ccc(F)c(Cl)c3)c2cc1OCCCN1CCOCC1 [gefitinib]
How it was run: as §1

[11] = compound: CS(=O)(=O)CCNCc1ccc(-c2ccc3ncnc(Nc4ccc(OCc5cccc(F)c5)c(Cl)c4)c3c2)o1 [lapatinib]
How it was run: as §1

[12] = compound: CS(=O)(=O)N1CCN(Cc2cc3nc(-c4cccc5[nH]ncc45)nc(N4CCOCC4)c3s2)CC1 [pictilisib]
How it was run: as §1

[13] = compound: C[C@@H](Oc1cc(-c2cnn(C3CCNCC3)c2)cnc1N)c1c(Cl)ccc(F)c1Cl [crizotinib]
How it was run: as §1

[14] = compound: C[C@H](C1=CC=C(C=C1)C(=O)NC2=C3C=CNC3=NC=C2)N
How it was run: as §1

[15] = compound: C[C@H](Nc1ncnc2nc[nH]c12)c1cc2cccc(Cl)c2c(=O)n1-c1ccccc1 [duvelisib]
How it was run: as §1

[16] = compound: Cc1cc(Nc2cc(CN3CCOCC3)c3nc(C)c(Cc4ccc(Cl)cc4F)n3n2)n[nH]1 [gandotinib]
How it was run: as §1

[17] = compound: Cc1cc(Nc2cc(N3CCN(C)CC3)nc(Sc3ccc(NC(=O)C4CC4)cc3)n2)n[nH]1 [tozasertib]
How it was run: as §1

[18] = compound: Cc1ccc(-n2nc(C(C)(C)C)cc2NC(=O)Nc2ccc(OCCN3CCOCC3)c3ccccc23)cc1 [doramapimod]
How it was run: as §1

[19] = compound: Cc1ccc(NC(=O)c2ccc(CN3CC[C@H](N(C)C)C3)c(C(F)(F)F)c2)cc1Nc1nccc(-c2cncnc2)n1 [bafetinib]
How it was run: as §1

[20] = compound: Cc1cccc(CC(=O)N2CCc3c2ccc(-c2cn(C)c4ncnc(N)c24)c3F)n1
How it was run: as §1

Measured: log2 fold change

PIR (UniProt O00625)
inactive: [1] 0.006 | [2] 0.019 | [3] -0.011 | [4] -0.032 | [5] 0.012 | [6] 0.003 | [7] -0.07 | [8] 0.016 | [9] -0.008 | [10] -0.012 | [11] 0.017 | [12] -0.05 | [13] 0.019 | [14] 0.099 | [15] -0.035 | [16] -0.058 | [17] -0.008 | [18] -0.021 | [19] 0.008 | [20] -0.006

PI4K2A (UniProt Q9BTU6)
inactive: [1] -0.006 | [2] -0.037 | [3] 0.021 | [4] -0.023 | [5] 0.012 | [6] 0.022 | [7] -0.092 | [8] -0.008 | [9] -0.056 | [10] 0.021 | [11] -0.02 | [12] -0.036 | [13] 0.003 | [14] -0.006 | [15] 0.054 | [16] -0.03 | [17] -0.025 | [18] -0.008 | [19] 0.008 | [20] 0.014

PHF3 (UniProt Q92576)
inactive: [1] -0.037 | [2] -0.03 | [3] 0.016 | [4] 0.024 | [5] 0.075 | [6] 0.04 | [7] 0 | [8] -0.013 | [9] -0.035 | [10] -0.021 | [11] 0.013 | [12] -0.014 | [13] -0.046 | [14] -0.043 | [15] 0.007 | [16] 0.049 | [17] -0.048 | [18] 0.068 | [19] -0.147 | [20] 0.033

PGGT1B (UniProt P53609)
inactive: [1] 0.032 | [2] 0.036 | [3] -0.068 | [4] 0.022 | [5] -0.117 | [6] -0.039 | [8] -0.011 | [9] -0.032 | [10] -0.021 | [11] 0.013 | [12] -0.012 | [13] 0.01 | [14] 0.013 | [15] -0.019 | [16] -0.158 | [17] 0.083 | [18] 0.047 | [19] 0.076 | [20] -0.074
active: [7] 0.454

PLEKHF1 (UniProt Q96S99)
inactive: [1] -0.001 | [2] -0.051 | [3] 0.058 | [4] -0.007 | [5] -0.033 | [6] -0.025 | [7] -0.009 | [8] -0.008 | [9] -0.001 | [10] 0.007 | [11] -0.022 | [12] -0.016 | [13] -0.021 | [14] -0.043 | [15] 0.058 | [16] 0.023 | [17] 0.02 | [18] 0.016 | [19] 0.013 | [20] 0.026

PI4KB (UniProt Q9UBF8)
inactive: [1] 0.005 | [2] -0.032 | [3] 0.228 | [4] 0.094 | [5] 0.056 | [6] 0.081 | [7] -0.069 | [8] -0.001 | [9] -0.097 | [10] 0 | [11] 0.02 | [12] 0.031 | [13] -0.011 | [14] -0.01 | [15] 0.005 | [16] 0.011 | [17] -0.02 | [18] 0.055 | [19] -0.073 | [20] 0.014

PHKA1 (UniProt P46020)
inactive: [1] 0.047 | [2] -0.073 | [3] 0.168 | [4] 0.08 | [5] -0.029 | [6] 0.004 | [7] 0.065 | [8] -0.014 | [9] 0.084 | [10] 0.041 | [11] -0.117 | [12] -0.003 | [13] -0.001 | [14] -0.042 | [15] -0.044 | [16] 0.069 | [17] 0.009 | [18] 0.024 | [19] 0.051 | [20] -0.047

PICALM (UniProt Q13492)
inactive: [1] -0.021 | [2] 0.029 | [3] -0.032 | [4] -0.037 | [5] -0.033 | [6] 0.042 | [7] 0.014 | [8] 0.008 | [9] 0.017 | [10] 0.008 | [11] 0.012 | [12] 0.001 | [13] 0.024 | [14] 0.052 | [15] 0.012 | [16] 0.022 | [17] 0.013 | [18] 0.028 | [19] -0.055 | [20] -0.007

PKNOX1 (UniProt P55347)
inactive: [1] -0.012 | [2] 0.043 | [3] 0.02 | [4] 0.01 | [5] -0.016 | [6] 0.081 | [7] 0.06 | [8] -0.005 | [9] -0.029 | [10] 0.215 | [11] 0.007 | [12] 0.132 | [13] -0.004 | [14] 0.023 | [15] -0.007 | [16] -0.005 | [17] -0.073 | [18] -0.017 | [19] -0.02 | [20] 0.041

PGK1 (UniProt P00558)
inactive: [1] 0.017 | [2] 0.015 | [3] -0.016 | [4] -0.019 | [5] 0.027 | [6] -0.035 | [7] 0.02 | [8] 0.017 | [9] 0.09 | [10] -0.011 | [11] -0.014 | [12] 0.004 | [13] 0.031 | [14] 0.063 | [15] -0.012 | [16] -0.032 | [17] -0.018 | [18] -0.024 | [19] 0.01 | [20] -0.024

2 successive records already listed, quoted:
PICALM (UniProt Q13492)
inactive: [1] -0.021 | [2] 0.029 | [3] -0.032 | [4] -0.037 | [5] -0.033 | [6] 0.042 | [7] 0.014 | [8] 0.008 | [9] 0.017 | [10] 0.008 | [11] 0.012 | [12] 0.001 | [13] 0.024 | [14] 0.052 | [15] 0.012 | [16] 0.022 | [17] 0.013 | [18] 0.028 | [19] -0.055 | [20] -0.007

PKNOX1 (UniProt P55347)
inactive: [1] -0.012 | [2] 0.043 | [3] 0.02 | [4] 0.01 | [5] -0.016 | [6] 0.081 | [7] 0.06 | [8] -0.005 | [9] -0.029 | [10] 0.215 | [11] 0.007 | [12] 0.132 | [13] -0.004 | [14] 0.023 | [15] -0.007 | [16] -0.005 | [17] -0.073 | [18] -0.017 | [19] -0.02 | [20] 0.041

Next entries.

PLEKHF2 (UniProt Q9H8W4)
inactive: [1] 0.011 | [2] -0.065 | [3] -0.009 | [4] 0.002 | [5] -0.095 | [6] 0.074 | [7] -0.047 | [8] -0.043 | [9] -0.002 | [10] -0.085 | [11] 0.036 | [12] 0.013 | [13] -0.073 | [14] 0.008 | [15] -0.093 | [16] -0.019 | [17] 0.04 | [18] 0.034 | [19] 0.062 | [20] 0.017

PIK3R4 (UniProt Q99570)
inactive: [1] -0.038 | [2] -0.052 | [3] 0.005 | [4] 0.002 | [5] -0.004 | [6] 0.051 | [7] -0.012 | [8] -0.013 | [9] 0.02 | [10] 0.011 | [11] -0.02 | [12] 0.012 | [13] -0.087 | [14] -0.036 | [15] 0.081 | [16] 0.125 | [17] 0.016 | [18] -0.02 | [19] 0.02 | [20] 0.038

PHAX (UniProt Q9H814)
inactive: [1] -0.007 | [2] 0.03 | [3] 0.019 | [4] 0.015 | [5] 0.056 | [6] 0.007 | [7] -0.04 | [8] 0.035 | [9] -0.018 | [10] 0.055 | [11] 0.009 | [12] -0.02 | [13] -0.001 | [14] -0.034 | [15] 0.034 | [16] 0.08 | [17] 0.002 | [18] 0.037 | [19] -0.004 | [20] -0.017

PHOSPHO2 (UniProt Q8TCD6)
inactive: [1] 0.053 | [2] -0.042 | [3] -0.026 | [4] -0.008 | [5] -0.008 | [6] -0.02 | [8] -0.013 | [9] -0.008 | [10] 0.016 | [11] -0.043 | [12] 0.015 | [13] -0.001 | [14] -0.063 | [15] -0.044 | [16] -0.009 | [17] -0.184 | [18] -0.045 | [19] -0.024 | [20] -0.002
active: [7] 0.356

PIEZO1 (UniProt Q92508)
inactive: [1] -0.006 | [2] 0.041 | [3] 0.018 | [4] -0.028 | [5] 0.004 | [6] 0.019 | [7] -0.044 | [8] -0.024 | [9] 0.016 | [10] 0.041 | [11] -0.018 | [12] 0.003 | [13] 0.014 | [14] -0.012 | [15] -0.02 | [16] 0.027 | [17] 0.009 | [18] -0.011 | [19] 0.009 | [20] 0.031

PHACTR4 isoform 2 (UniProt Q8IZ21)
active: [14] 0.764
inactive: [1] 0.209 | [2] 0.016 | [3] -0.024 | [4] 0.012 | [5] 0.1 | [6] -0.01 | [7] -0.016 | [8] -0.019 | [9] 0.004 | [10] -0.022 | [11] -0.015 | [12] -0.014 | [13] -0.005 | [15] 0 | [16] -0.121 | [17] -0.03 | [18] -0.003 | [19] 0.022 | [20] -0.196
